Source: the supplement of paper PMC7752906
Counter-ions that a name gives are not always drawn. This is one part of the list. Single values are uncertain here, since repeats match poorly.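 About 40 Schistosoma mansoni schistosomula per well were imaged over time in bright field and compared with 0.1% DMSO wells. A drug counts as a hit if its Mahalanobis distance reaches 2.47 or more, three standard deviations above the DMSO control mean. Degeneracy is the fraction of worms scored opaque.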

system: Schistosoma mansoni schistosomula; test: degeneracy (percent of somules classified as degenerate/opaque); higher = more parasite degeneration/death; extreme values may be limits of the assay; settings: 10 µM; 72 h

Row | Compound | degeneracy [%]
1 | CCCCOc1ccc(C(=O)CCN2CCCCC2)cc1 [Dyclonine Hydrochloride] | 7.69
2 | CC(C)(C)CC(C)(C)c1ccc(OCCOCC[N+](C)(C)Cc2ccccc2)cc1 [Benzethonium Chloride] | 100
3 | Cn1nnc2c(C(N)=O)ncn2c1=O [Temozolomide] | 11.9
4 | CC(C)(C)NC(=O)[C@H]1CC[C@H]2[C@@H]3CC[C@H]4NC(=O)C=C[C@]4(C)[C@H]3CC[C@]12C [Finasteride] | 10.5
5 | C=C1CC[C@H](O)C/C1=C/C=C1\CCC[C@]2(C)[C@@H]([C@H](C)/C=C/[C@H](C)C(C)C)CC[C@@H]12 [Ergocalciferol] | 0
6 | CC(C)C(=O)c1c(C(C)C)nn2ccccc12 [Ibudilast] | 0
7 | C[N+](C)(C)C[C@H](O)CC(=O)[O-] [Levocarnitine] | 15.4
8 | OC(CCN1CCCC1)(c1ccccc1)C1CCCCC1 (stereo not drawn) [Procyclidine] | 19.1
9 | CC(C)NCC(O)COc1cccc2[nH]ccc12 (stereo not drawn) [Pindolol] | 2.78
10 | CC(CN(C)C)CN1c2ccccc2CCc2ccccc21 (stereo not drawn) [Trimipramine] | 100
11 | CC1(C)O[C@@H]2C[C@H]3[C@@H]4C[C@H](F)C5=CC(=O)C=C[C@]5(C)[C@H]4[C@@H](O)C[C@]3(C)[C@]2(C(=O)CO)O1 [Flunisolide] | 3.12
12 | CN(Cc1cc(Br)cc(Br)c1N)C1CCCCC1 [Bromhexine] | 100
13 | NCCc1ccc(O)c(O)c1 [Dopamine Hydrochloride] | 4.35
14 | CC(=O)OCC(=O)[C@@]1(O)CC[C@H]2[C@@H]3CCC4=CC(=O)C=C[C@]4(C)[C@H]3[C@@H](O)C[C@@]21C [Prednisolone Acetate] | 0
15 | Cc1ccc(O)c([C@H](CCN(C(C)C)C(C)C)c2ccccc2)c1 [Tolterodine] | 2.38
16 | NC[C@H]1CC[C@H](C(=O)O)CC1 [Tranexamic Acid] | 17.6
17 | Oc1c(Cl)cc(Cl)cc1Sc1cc(Cl)cc(Cl)c1O [Bithionol] | 100
18 | CCCCOc1ccc(CC(=O)NO)cc1 [Bufexamac] | 10.4
19 | COc1ccc2nc3cc(Cl)ccc3c(Nc3cc(CN4CCCC4)c(O)c(CN4CCCC4)c3)c2n1 [Pyronaridine Tetraphosphate] | 4.88
20 | Cc1c(O)cccc1C(=O)N[C@@H](CSc1ccccc1)[C@H](O)CN1C[C@H]2CCCC[C@H]2C[C@H]1C(=O)NC(C)(C)C [Nelfinavir] | 100
21 | CC(C)CCC[C@@H](C)[C@H]1CC[C@H]2[C@@H]3CC=C4C[C@@H](O)CC[C@]4(C)[C@H]3CC[C@]12C [Cholesterol] | 7.69
22 | COc1ccc(-n2nc(CCC(=O)N(C)O)cc2-c2ccc(Cl)cc2)cc1 [Tepoxalin] | 5.88
23 | O=P(O)(O)C(O)(Cc1cccnc1)P(=O)(O)O [Risedronate Sodium] | 3.7
24 | O=C(O)c1cc(O)c(O)c(O)c1 [Gallic Acid] | 18.2
25 | CCN(CC)C(=O)N1CCN(C)CC1 [Diethylcarbamazine] | 10.3
26 | CC[C@]1(O)C[C@@H]2CN(CCc3c([nH]c4ccccc34)[C@@](C(=O)OC)(c3cc4c(cc3OC)N(C)[C@H]3[C@@](O)(C(=O)OC)[C@H](OC(C)=O)[C@]5(CC)C=CCN6CC[C@]43[C@@H]65)C2)C1 [Vinblastine Sulfate] | 47.6

As entered above:
degeneracy [%], CC(C)C(=O)c1c(C(C)C)nn2ccccc12 [Ibudilast] reads 0
degeneracy [%], O=P(O)(O)C(O)(Cc1cccnc1)P(=O)(O)O [Risedronate Sodium] reads 3.7
degeneracy [%], OC(CCN1CCCC1)(c1ccccc1)C1CCCCC1 (stereo not drawn) [Procyclidine] reads 19.1

Continued:

Row | Compound | degeneracy [%]
27 | CC(=O)[C@H]1CC[C@H]2[C@@H]3CC=C4C[C@@H](OC(=O)CCC(=O)O)CC[C@]4(C)[C@H]3CC[C@]12C [Pregnenolone Succinate] | 10
28 | CCN(CCCc1ccccc1)CCCc1ccccc1 [Alverine Citrate] | 16.7
29 | Clc1ccccc1C(c1ccccc1)(c1ccccc1)n1ccnc1 [Clotrimazole] | 100
30 | CO/N=C1\CN(c2nc3c(cc2F)c(=O)c(C(=O)O)cn3C2CC2)CC1CN (stereo not drawn) [Gemifloxacin Mesylate] | 2.33
31 | Cc1cc(CC(C)CC(C)(C)C)n(O)c(=O)c1 (stereo not drawn) [Piroctone Olamine] | 100
32 | O=S(=O)(O)CCSSCCS(=O)(=O)O [Dimesna] | 9.68
33 | O=C(O)CCc1nc2ccccc2[nH]1 [Procodazole] | 0
34 | NC(=O)c1cccnc1 [Niacinamide] | 5.71
35 | Nc1nccs1 [Aminothiazole] | 6.98
36 | Cn1c(=O)c2c(ncn2CC(O)CO)n(C)c1=O (stereo not drawn) [Dyphylline] | 3.85
37 | CCCc1nc(C(C)(C)O)c(C(=O)OCc2oc(=O)oc2C)n1Cc1ccc(-c2ccccc2-c2nnn[nH]2)cc1 [Olmesartan Medoxomil] | 10.7
38 | NC(=O)C1(N2CCCCC2)CCN(CCCC(=O)c2ccc(F)cc2)CC1 [Pipamperone] | 3.45
39 | CC1=C(C(=O)O)N2C(=O)[C@@H](NC(=O)[C@H](N)c3ccc(O)cc3)[C@H]2SC1 [Cefadroxil] | 11.4
40 | CC(C)(Oc1ccc(C2CC2(Cl)Cl)cc1)C(=O)O (stereo not drawn) [Ciprofibrate] | 2.38
41 | O=C(O)[C@@H](S)[C@@H](S)C(=O)O [Succimer] | 0
42 | CCN1CCC[C@H]1CNC(=O)c1cc(S(N)(=O)=O)ccc1OC [Levosulpiride] | 7.14
43 | Nc1ccc(S(N)(=O)=O)cc1 [Sulfanilamide] | 2.86
44 | CC(CCc1ccc(O)cc1)NCCc1ccc(O)c(O)c1 (stereo not drawn) [Dobutamine] | 9.09
45 | CCC(C)(C)c1ccc(CC(C)CN2C[C@@H](C)O[C@@H](C)C2)cc1 (stereo partly drawn) [Amorolfine] | 8.57
46 | CC[C@]12CCCN3CCc4c(n(c5ccccc45)[C@@](O)(C(=O)OC)C1)[C@@H]32 [Vincamine] | 14.8
47 | S=P(N1CC1)(N1CC1)N1CC1 [Thiotepa] | 3.12
48 | Nc1nc(N)nc(-c2cc(Cl)ccc2Cl)n1 [Irsogladine Maleate] | 10.8
49 | CCN1CCCC1CNC(=O)c1cc(S(=O)(=O)CC)c(N)cc1OC (stereo not drawn) [Amisulpride] | 3.7
50 | CC1CCc2cc(F)cc3c(=O)c(C(=O)O)cn1c23 (stereo not drawn) [Flumequine] | 9.52
51 | CC(C)[C@H]1CC[C@H](C(=O)N[C@H](Cc2ccccc2)C(=O)O)CC1 [Nateglinide] | 0
52 | CC(=O)Oc1cccc(C(=O)O)c1OC(C)=O [Dipyrocetyl] | 3.23

Excerpt, nos. 38–39
Row | Compound | degeneracy [%]
38 | NC(=O)C1(N2CCCCC2)CCN(CCCC(=O)c2ccc(F)cc2)CC1 [Pipamperone] | 3.45
39 | CC1=C(C(=O)O)N2C(=O)[C@@H](NC(=O)[C@H](N)c3ccc(O)cc3)[C@H]2SC1 [Cefadroxil] | 11.4

Next part

Row | Compound | degeneracy [%]
53 | CC(C)c1nc(CN(C)C(=O)N[C@H](C(=O)N[C@@H](Cc2ccccc2)C[C@H](O)[C@H](Cc2ccccc2)NC(=O)OCc2cncs2)C(C)C)cs1 [Ritonavir] | 26.3
54 | CCn1cc(C(=O)O)c(=O)c2cc(F)c(N3CCNCC3)cc21 [Norfloxacin] | 3.03
55 | CCOC(=O)C1=C(C)NC(C)=C(C(=O)OC)C1c1cccc([N+](=O)[O-])c1 (stereo not drawn) [Nitrendipine] | 2.5
56 | O=C(c1ccc(OCCN2CCCCC2)cc1)c1c(-c2ccc(O)cc2)sc2cc(O)ccc12 [Raloxifene] | 100
57 | CCC(=O)NCC[C@@H]1CCc2ccc3c(c21)CCO3 [Ramelteon] | 2.38
58 | CN(C)CCC(c1ccc(Cl)cc1)c1ccccn1 (stereo not drawn) [Chlorpheniramine] | 3.57
59 | COc1cc(N)c(Cl)cc1C(=O)NC1CCN(CCCOc2ccc(F)cc2)CC1OC (stereo not drawn) [Cisapride] | 10.7
60 | COc1ccc2cc1Oc1ccc(cc1)C[C@H]1c3c(cc4c(c3Oc3cc5c(cc3OC)CCN(C)[C@@H]5C2)OCO4)CCN1C [cepharanthine] | 100
61 | O=C(O[C@@H]1C[C@@H]2C[C@H]3C[C@H](C1)N2CC3=O)c1c[nH]c2ccccc12 [Dolasetron] | 100
62 | CC(C)(C)NC(=O)[C@@H]1CN(Cc2cccnc2)CCN1C[C@@H](O)C[C@@H](Cc1ccccc1)C(=O)N[C@H]1c2ccccc2C[C@H]1O [Indinavir] | 0
63 | Cc1c(OCC(F)(F)F)ccnc1C[S+]([O-])c1nc2ccccc2[nH]1 (stereo not drawn) [Lansoprazole] | 0
64 | Cn1c(=O)c2c(ncn2C)n(C)c1=O [Caffeine] | 17.2
65 | NC(=O)c1ccc[n+]([C@@H]2O[C@H](COP(=O)([O-])OP(=O)(O)OC[C@H]3O[C@@H](n4cnc5c(N)ncnc54)[C@H](O)[C@@H]3O)[C@@H](O)[C@H]2O)c1 [Nadide] | 0
66 | NCC(=O)CCC(=O)O [Aminolevulinic Acid Hydrochloride] | 2.56
67 | Cc1cc2c(OCC(CNC(C)(C)C)OC(=O)c3ccccc3)cccc2[nH]1 (stereo not drawn) [Bopindolol] | 4.17
68 | O=C(O)/C=C/C(=O)O [Fumaric Acid] | 0
69 | O=C(O)C[C@H](O)C[C@H](O)/C=C/c1c(C2CC2)nc2ccccc2c1-c1ccc(F)cc1 [Pitavastatin Calcium] | 78.3
70 | CC1(C)[C@@H](O)CC[C@]2(C)[C@H]3C(=O)C=C4[C@@H]5C[C@@](C)(C(=O)O)CC[C@]5(C)CC[C@@]4(C)[C@]3(C)CC[C@@H]12 [Enoxolone] | 100
71 | COCCOC(=O)C1=C(C)NC(C)=C(C(=O)OC(C)C)C1c1cccc([N+](=O)[O-])c1 (stereo not drawn) [Nimodipine] | 11.1
72 | NCCS [Cysteamine Hydrochloride] | 12.5
73 | CN1C(C(=O)Nc2ccccn2)=C(O)c2ccccc2S1(=O)=O [Piroxicam] | 3.33
74 | NS(=O)(=O)Cc1noc2ccccc12 [Zonisamide] | 5.26
75 | CN(C)CCN(Cc1ccc(Cl)cc1)c1ccccn1 [Chloropyramine Hydrochloride] | 39.3
76 | CCCCCCCCCCOc1cc2c(O)c(C(=O)OCC)cnc2cc1OCC [Decoquinate] | 2.38
77 | COc1ccc([C@@H]2Sc3ccccc3N(CCN(C)C)C(=O)[C@@H]2OC(C)=O)cc1 [Diltiazem Hydrochloride] | 8.7
78 | COc1ccc([C@@H]2Sc3ccccc3N(CCN(C)C)C(=O)[C@@H]2OC(C)=O)cc1 [Diltiazem] | 22.2
